Experimental data: PubChem BioAssay AID1259254 (NCATS, 2017)
Purpose: 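Gene knock-downs that lead to re-replication, shown by excess G2 DNA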 (primary screen). Cell system: human HCT116 colorectal cancer cells. Knock-down reagent: single siRNA against human genes. Time to read-out: 3 days. Detection: 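Imaged Hoechst DNA stain sorts each cell into a cycle phase by DNA amount; per plate, G2 fraction set to 0% for non-targeting and 100% for GMNN siRNA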. Reading the numbers: G2 robust z-score: higher = more G2 cells, more excess DNA replication. Call rule: 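Active siRNAs have a G2 robust z of 5 or more median absolute deviations over the median, which in these data means about 38% or higher of GMNN control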.
Shown is an unselected part of about 59,000 reagents. Over the whole deposit, about 1,550 (2.6%) got an active call. 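G2 share is only a proxy for re-replication; each gene was hit by three separate siRNAs, and active genes were retested.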 Unmarked entries are inactive. Not all columns of the deposit are shown. Not given: the amount of reagent.

gene	PubChem SID	G2 robust z-score
MCF2L2 (MCF.2 cell line derived transforming sequence-like 2)	SID160735452	-1.52
MCF2L2 (MCF.2 cell line derived transforming sequence-like 2)	SID160735453	3.74
MCF2L2 (MCF.2 cell line derived transforming sequence-like 2)	SID160735454	9.68 (active)
ATP1B3 (ATPase Na+/K+ transporting subunit beta 3)	SID160721495	-0.321
ATP1B3 (ATPase Na+/K+ transporting subunit beta 3)	SID160721506	-0.783
ATP1B3 (ATPase Na+/K+ transporting subunit beta 3)	SID160721516	-0.527
CLSTN3 (calsyntenin 3)	SID160722975	0.722
CLSTN3 (calsyntenin 3)	SID160722976	-0.145
CLSTN3 (calsyntenin 3)	SID160722977	-0.469
SLC25A17	SID160728527	-0.837
SLC25A17	SID160728528	-0.799
SLC25A17	SID160730441	-1.23
NINJ1 (ninjurin 1)	SID160778072	-1.17
NINJ1 (ninjurin 1)	SID160778073	2.93
NINJ1 (ninjurin 1)	SID160778074	-0.265
RAD17 (RAD17 checkpoint clamp loader component)	SID160715584	1.45
RAD17 (RAD17 checkpoint clamp loader component)	SID160715585	-1.13
RAD17 (RAD17 checkpoint clamp loader component)	SID160715586	-0.0412
TMEM80 (transmembrane protein 80)	SID160762824	-0.264
TMEM80 (transmembrane protein 80)	SID160762825	-0.136
TMEM80 (transmembrane protein 80)	SID160762826	-0.123
APLP2 (amyloid beta precursor like protein 2)	SID160718580	0.288
APLP2 (amyloid beta precursor like protein 2)	SID160718589	0.178
APLP2 (amyloid beta precursor like protein 2)	SID160733067	-0.681
TNFRSF12A (TNF receptor superfamily member 12A)	SID160724414	0.178
TNFRSF12A (TNF receptor superfamily member 12A)	SID160724415	0.243
TNFRSF12A (TNF receptor superfamily member 12A)	SID160724417	3.7
PARD6G (par-6 family cell polarity regulator gamma)	SID160752408	0.0982
PARD6G (par-6 family cell polarity regulator gamma)	SID160752410	1.56
PARD6G (par-6 family cell polarity regulator gamma)	SID160752411	-0.649
NAGLU (N-acetyl-alpha-glucosaminidase)	SID160777761	-0.246
NAGLU (N-acetyl-alpha-glucosaminidase)	SID160777762	-0.116
NAGLU (N-acetyl-alpha-glucosaminidase)	SID160777763	0.632
OR7D2 (olfactory receptor family 7 subfamily D member 2)	SID160732604	0.0688
OR7D2 (olfactory receptor family 7 subfamily D member 2)	SID160759986	0.886
OR7D2 (olfactory receptor family 7 subfamily D member 2)	SID160759987	0.104
RPS25P6 (ribosomal protein S25 pseudogene 6)	SID160767188	0.65
RPS25P6 (ribosomal protein S25 pseudogene 6)	SID160767189	0.555
RPS25P6 (ribosomal protein S25 pseudogene 6)	SID160767190	-0.204
ACADS (acyl-CoA dehydrogenase short chain)	SID160777428	0.0159
ACADS (acyl-CoA dehydrogenase short chain)	SID160777439	1.32
ACADS (acyl-CoA dehydrogenase short chain)	SID160777449	-0.984
HDGFL3 (HDGF like 3)	SID160739717	-0.663
HDGFL3 (HDGF like 3)	SID160739718	1.26
HDGFL3 (HDGF like 3)	SID160739720	0.433
SACK1C (scaffolding CK1 anchoring protein C)	SID160756821	2.46
SACK1C (scaffolding CK1 anchoring protein C)	SID160756822	0.146
SACK1C (scaffolding CK1 anchoring protein C)	SID160756823	0.397
ZFP57 (ZFP57 zinc finger protein)	SID160764891	2.04
ZFP57 (ZFP57 zinc finger protein)	SID160764892	-0.842
ZFP57 (ZFP57 zinc finger protein)	SID160764893	-1.37
SYT1 (synaptotagmin 1)	SID160717606	0.313
SYT1 (synaptotagmin 1)	SID160717607	-0.468
SYT1 (synaptotagmin 1)	SID160717608	-0.802
TMEM31 (transmembrane protein 31)	SID160761160	4.14
TMEM31 (transmembrane protein 31)	SID160761162	2.7
TMEM31 (transmembrane protein 31)	SID160761163	0.21
COQ8B (coenzyme Q8B)	SID160749807	-0.259
COQ8B (coenzyme Q8B)	SID160749808	-1.48
COQ8B (coenzyme Q8B)	SID160749809	-0.349
RRP15 (ribosomal RNA processing 15 homolog)	SID160739862	-0.514
RRP15 (ribosomal RNA processing 15 homolog)	SID160739863	-0.204
RRP15 (ribosomal RNA processing 15 homolog)	SID160739864	2.53
NLGN4X (neuroligin 4 X-linked)	SID160746121	4.08
NLGN4X (neuroligin 4 X-linked)	SID160746123	0.612
NLGN4X (neuroligin 4 X-linked)	SID160746124	-0.118
BMPR1A (bone morphogenetic protein receptor type 1A)	SID160740662	0.217
BMPR1A (bone morphogenetic protein receptor type 1A)	SID160740768	-0.518
BMPR1A (bone morphogenetic protein receptor type 1A)	SID160740870	0.631

Active calls (from the list above):
gene	PubChem SID	G2 robust z-score
MCF2L2 (MCF.2 cell line derived transforming sequence-like 2)	SID160735454	9.68 (active)
